{"source": "PubChem BioAssay AID504791 (Drosophila RNAi Screening Center, 2011)", "screen": "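Genes whose knock-down strengthens or weakens small-RNA reporter silencing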 (primary screen)", "cells": "Drosophila S2-derived reporter cells", "knock-down reagent": "long dsRNA against Drosophila genes, about 150-250 ng dsRNA per well (siRNA assay); about 80-120 ng (miRNA assay)", "time to read-out": "about 5 days (siRNA assay); about 4 days (miRNA assay)", "treatment": "copper sulfate induction of reporters: 25 µM (siRNA assay); 200 mM stated (miRNA assay), 1-2 days before reading", "measured": "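Dual luciferase assay: Renilla to firefly signal ratio in each well, scaled to the mean ratio of its plate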", "direction": "siRNA reporter hit score: higher = 3 marks a strong hit with raised ratio; -3 a strong hit with lowered ratio", "units": "stable assay Renilla, run 1 in luminescence; stable assay firefly, run 1 in luminescence", "call rule": "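a well was a first-pass pick when its plate-scaled ratio rose above 1.5 (siRNA assay) or 1.6 (miRNA assay), or dropped below 0.6; a gene counted only if two separate dsRNAs agreed on retest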", "note": "The screen tested about 23,000 reagents; below is a random part of those that have a named target and a result. Of all reagents, 199 (0.86%) got an active call. 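Plate-scaled ratios behind the calls are not deposited; printed light signals are raw; many rows marked increased or decreased are still called inactive.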 A number with no mark means an inactive call. A plus sign joins genes that one reagent is predicted to hit. Reagent sequences are not shown."}
{"predicted target":"CG17068","amplicon":"DRSC20545","stable assay Renilla, run 1":7278,"stable assay firefly, run 1":3.80e5}
{"predicted target":"Cand1","amplicon":"DRSC01992","stable assay Renilla, run 1":21238,"stable assay firefly, run 1":4.55e5}
{"predicted target":"IRSp53","amplicon":"DRSC10891","stable assay Renilla, run 1":5871,"stable assay firefly, run 1":2.97e5}
{"predicted target":"dati","amplicon":"DRSC17128","stable assay Renilla, run 1":8146,"stable assay firefly, run 1":4.70e5}
{"predicted target":"dati","amplicon":"DRSC17153","stable assay Renilla, run 1":5802,"stable assay firefly, run 1":3.04e5}
{"predicted target":"Fdx1","amplicon":"DRSC11167","stable assay Renilla, run 1":7202,"stable assay firefly, run 1":5.42e5}
{"predicted target":"rdog","amplicon":"DRSC14431","stable assay Renilla, run 1":7199,"stable assay firefly, run 1":4.94e5}
{"predicted target":"CG1792","amplicon":"DRSC15290","stable assay Renilla, run 1":7135,"stable assay firefly, run 1":4.65e5}
{"predicted target":"CG15099","amplicon":"DRSC06528","stable assay Renilla, run 1":10451,"stable assay firefly, run 1":5.20e5}
{"predicted target":"CG10344","amplicon":"DRSC04066","stable assay Renilla, run 1":6103,"stable assay firefly, run 1":3.52e5}
{"predicted target":"CG10344","amplicon":"DRSC24394","miRNA reporter change":"reporter ratio raised past the hit cutoff (active)"}
{"predicted target":"PsGEF","amplicon":"DRSC18596","miRNA reporter change":"reporter ratio lowered past the hit cutoff","stable assay Renilla, run 1":5516,"stable assay firefly, run 1":3.69e5}
{"predicted target":"CG10950","amplicon":"DRSC06020","stable assay Renilla, run 1":7196,"stable assay firefly, run 1":3.03e5}
{"predicted target":"CG15225","amplicon":"DRSC04232","stable assay Renilla, run 1":7460,"stable assay firefly, run 1":4.23e5}
{"predicted target":"CG15225","amplicon":"DRSC23269","stable assay Renilla, run 1":3988,"stable assay firefly, run 1":3.09e5}
{"predicted target":"CG32022","amplicon":"DRSC09678","stable assay Renilla, run 1":6070,"stable assay firefly, run 1":3.47e5}
{"predicted target":"CG34315 + Orc3","amplicon":"DRSC07642","stable assay Renilla, run 1":8115,"stable assay firefly, run 1":5.03e5}

Entries above whose target name starts with D or d:
{"predicted target":"dati","amplicon":"DRSC17128","stable assay Renilla, run 1":8146,"stable assay firefly, run 1":4.70e5}
{"predicted target":"dati","amplicon":"DRSC17153","stable assay Renilla, run 1":5802,"stable assay firefly, run 1":3.04e5}

The results go on:
{"predicted target":"CG15743","amplicon":"DRSC19709","stable assay Renilla, run 1":5428,"stable assay firefly, run 1":4.38e5}
{"predicted target":"Pits","amplicon":"DRSC19385","miRNA reporter change":"reporter ratio raised past the hit cutoff","stable assay Renilla, run 1":5319,"stable assay firefly, run 1":4.34e5}
{"predicted target":"Pits","amplicon":"DRSC19812","stable assay Renilla, run 1":4975,"stable assay firefly, run 1":5.02e5}
{"predicted target":"croc","amplicon":"DRSC11884","stable assay Renilla, run 1":7298,"stable assay firefly, run 1":4.93e5}
{"predicted target":"CG10035","amplicon":"DRSC14177","stable assay Renilla, run 1":6047,"stable assay firefly, run 1":4.50e5}
{"predicted target":"CG10764","amplicon":"DRSC06000","stable assay Renilla, run 1":9411,"stable assay firefly, run 1":3.37e5}
{"predicted target":"CG4615","amplicon":"DRSC17491","stable assay Renilla, run 1":6452,"stable assay firefly, run 1":5.97e5}
{"predicted target":"CG4615","amplicon":"DRSC18376","stable assay Renilla, run 1":7580,"stable assay firefly, run 1":5.44e5}
{"predicted target":"CG40551 (retired record)","amplicon":"DRSC21229","stable siRNA reporter change":"reporter ratio raised past the hit cutoff","stable assay Renilla, run 1":5470,"stable assay firefly, run 1":2.74e5}
{"predicted target":"CG6310","amplicon":"DRSC10619","stable assay Renilla, run 1":5928,"stable assay firefly, run 1":3.36e5}
{"predicted target":"IntS11","amplicon":"DRSC15407","siRNA reporter hit score":-3,"stable assay Renilla, run 1":11357,"stable assay firefly, run 1":5.52e5}
